The list shows a part of the results.

Chains of the proteins cited; added tags and fusions are not shown.
UniProt Q0JBA9, entry or part of it: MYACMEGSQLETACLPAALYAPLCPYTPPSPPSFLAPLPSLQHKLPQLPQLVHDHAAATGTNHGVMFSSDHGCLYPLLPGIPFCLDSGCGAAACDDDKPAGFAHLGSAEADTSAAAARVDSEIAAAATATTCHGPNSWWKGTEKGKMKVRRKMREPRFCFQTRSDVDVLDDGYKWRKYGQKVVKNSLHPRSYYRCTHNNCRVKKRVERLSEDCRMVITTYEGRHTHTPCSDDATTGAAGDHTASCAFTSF

The record followed here is paper PMC7819943, “Rice protein-binding microarrays: a tool to detect cis-acting elements near promoter regions in rice”.

The target of this experiment is OsWRKY34 (Oryza sativa, UniProt Q0JBA9 1-250). The experiment can be described thus: protein-binding microarray (RPBM); PBS, 2% BSA, 51.3 ng/ul salmon testes DNA, 50 uM zinc acetate, 200 nM TF, 25 C, 1 h; high values mean tight binding. The following applies: protein: recombinant; tags: N-terminal polyhistidine and DsRed monomer fusion (pET32a); label: CyDye5-dUTP incorporated in the synthesized complementary strand; 3' TTTTT single-stranded linker to array surface; dsDNA, one strand shown. The procedure, abridged:
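Using Ni–NTA, transcription factors fused N-terminally to polyhistidine and DsRed were purified after expression in E. coli BL21-CodonPlus. These were incubated at 200 nM with a blocked, double-stranded custom Agilent array for 1 h at 25 °C in a buffer containing 50 µM zinc acetate, and the array was washed. The binding signal is per-feature fluorescence intensity (arbitrary units) on an Axon 4000B scanner.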
For “TTGCCGGGATGGGCGAGCTTTGGGCGGGATTTGATCGGCTCGGAGTCACCTAGTGCAG”, the binding signal was 13100 fluorescence intensity (a.u.). The figure for “TCTATTTAAAATATGGTAGGGCTTTTTATGTTTTCTACAACGGAGTCACCTAGTGCAG” is 10400 fluorescence intensity (a.u.); for “GTTCTTCAGGTCGTACTCTCTCTCCTCATCAATCCAATCTCGGAGTCACCTAGTGCAG” it is 8600 fluorescence intensity (a.u.). On to “GGATAAACTAAGCTTTTCACCTTGGACCAGGTATTTTTCCCGGAGTCACCTAGTGCAG”, for which the binding signal is 8940 fluorescence intensity (a.u.). The figure for “AAAGTAGTTCTTTTTATTTTTGTGGCTTCTAATTCTTTTCCGGAGTCACCTAGTGCAG” is 8210 fluorescence intensity (a.u.); for “AATTCGAGTTGTATAAGGGTGCGTGGTTGATTTTTAGTCTCGGAGTCACCTAGTGCAG” it is 9680 fluorescence intensity (a.u.). “CCACCCCACCACCCACACCCTAACACTTATAAATACCCCTCGGAGTCACCTAGTGCAG”: the binding signal was 9440 fluorescence intensity (a.u.).

With “TCACCTACGGCGCCACCGACTCGTGCTACGGCCCCTACGGCGGAGTCACCTAGTGCAG”, the binding signal was 8130 fluorescence intensity (a.u.). As for “TCGGTTTTATTGGTACGATAGTTGGTCACTACCCCTAATTCGGAGTCACCTAGTGCAG”, the figure is 8370 fluorescence intensity (a.u.); as for “CCCTCCGGCCGGCGCCTGTGCGCCGCTTCTTATTTCTGCCCGGAGTCACCTAGTGCAG”, 8490 fluorescence intensity (a.u.). Consider “CTCCACTCCTCCCACACGCCCGCATCGCCGCCGCCTCTCCCGGAGTCACCTAGTGCAG”, for which the binding signal is 8150 fluorescence intensity (a.u.).

In the case of “TCCGGGGTGAATACAAATGTTCAGCTTTTCTGTCCGTCTCCGGAGTCACCTAGTGCAG”, the binding signal is 8150 fluorescence intensity (a.u.). Turning to “GGTCCTTATATATACATCAGCACGAGCTCGCCATGGCATCCGGAGTCACCTAGTGCAG”, the binding signal was 8750 fluorescence intensity (a.u.). As for “GCCGCCATCCCCACCATCGCCGTCGCCGTCGCCTCGCCTCCGGAGTCACCTAGTGCAG”, the figure is 13300 fluorescence intensity (a.u.); as for “GGATAATATGGGTGGGGATGAAGTGTGGAGGTGGCATATCCGGAGTCACCTAGTGCAG”, 10600 fluorescence intensity (a.u.); as for “CCTATAGTTGTTTAAATGTGTCAGTTCTCTGTTTTTTATCCGGAGTCACCTAGTGCAG”, 8950 fluorescence intensity (a.u.). As to “TTACCTCATCCGGTTTAATATATGACGTTTAGACATGCGTCGGAGTCACCTAGTGCAG”, the binding signal was 9660 fluorescence intensity (a.u.). The figure for “GCGCCGTTCCTGCACGATTTCGACCGCGTCTACGCCGAGGCGGAGTCACCTAGTGCAG” is 9340 fluorescence intensity (a.u.); for “TGTGGTGGAGGCCGGCTGGGTTCTCTTGGGGTTTGGCCGGCGGAGTCACCTAGTGCAG” it is 10400 fluorescence intensity (a.u.); for “CCATATACTCAGTTAACCATGTTAAATTTCATCTTAATAACGGAGTCACCTAGTGCAG” it is 8860 fluorescence intensity (a.u.). As for “AAGAAATCCTCCGCCGCCGCCGCCGCCGCCGCCGCCAACGCGGAGTCACCTAGTGCAG”, the figure is 8090 fluorescence intensity (a.u.). The figure for “GTCCTCTTTTGTACCCTACTCTCGCTCACAGTAGCCGCTTCGGAGTCACCTAGTGCAG” is 9780 fluorescence intensity (a.u.). For the sequence “GTTTTTTAATATGTATGTATGCAAAGTTTGTATACACGTACGGAGTCACCTAGTGCAG”, the binding signal is 8070 fluorescence intensity (a.u.). As to “CTGCTCCGCCGCCGCCGCCGCCGTCCTCGATCCATCCATGCGGAGTCACCTAGTGCAG”, the binding signal is 9110 fluorescence intensity (a.u.). As for “CACCGATTGCTCTCTCTTTGACCAAACAAAGACCGGGGCACGGAGTCACCTAGTGCAG”, the figure is 8670 fluorescence intensity (a.u.); as for “GTTCTTTACCGGCATCGCTTACTTTGTTAATGTAAATTAACGGAGTCACCTAGTGCAG”, 8820 fluorescence intensity (a.u.); as for “TTTAATCAAATGTACTAGTACTGTTTTCTGGCGGAGCTACCGGAGTCACCTAGTGCAG”, 8040 fluorescence intensity (a.u.). The figure for “ATATATGCCACCCCATTCCTCGCCCACACGCGCAGCACACCGGAGTCACCTAGTGCAG” is 8870 fluorescence intensity (a.u.).

Take “ATGCATTAGCTAATTTTGACTCATTTCTTAATTCTTATACCGGAGTCACCTAGTGCAG”: the binding signal is 8110 fluorescence intensity (a.u.). As for “GCCACATGACCGCATTCAAAGTTTCGGCTCCTCTGTTTCCCGGAGTCACCTAGTGCAG”, the binding signal was 12300 fluorescence intensity (a.u.). As for “TCACTCGTCCTCTTATTCGCTACTAATTTCCTTCGCACATCGGAGTCACCTAGTGCAG”, the figure is 11300 fluorescence intensity (a.u.); as for “TTATTTTGTGTCGATATGTAGTTCCATAGTTAGTGAAAGTCGGAGTCACCTAGTGCAG”, 8320 fluorescence intensity (a.u.). As for “TGTTACTTTTGTGTGATCTGTGTGGATGGGTCTTTTTTTCCGGAGTCACCTAGTGCAG”, the figure is 13500 fluorescence intensity (a.u.). As for “GTACTTCATGTAGCTGCGCCAGGTGTGCCAGATGGTTTCTCGGAGTCACCTAGTGCAG”, the figure is 10200 fluorescence intensity (a.u.); as for “TGCGTGATGATATATTGACTGCTCCATCTCTCGTCTCGCGCGGAGTCACCTAGTGCAG”, 8630 fluorescence intensity (a.u.). For the sequence “TGTTTGTGTTTGGTATGGTTTGTTTCTCGATCGGTACATCCGGAGTCACCTAGTGCAG”, the binding signal was 14700 fluorescence intensity (a.u.).

With “GACGAGGGCACGGCCGTCACTTCCTACGCGTGGGGATCACCGGAGTCACCTAGTGCAG”, the binding signal is 8250 fluorescence intensity (a.u.). As for “CCAAAAACCTCTACTCTTCCGCGTCTTGGAAAATTCTTCTCGGAGTCACCTAGTGCAG”, the figure is 9300 fluorescence intensity (a.u.).

On to “CCCGCTCGTCTAAAACCCTCGACCTCCTCGCCTCATCCACCGGAGTCACCTAGTGCAG”, for which the binding signal is 10300 fluorescence intensity (a.u.). As for “AGGTTATTTTTTCCTTACCTTTTTTTTTTCTGATACTACTCGGAGTCACCTAGTGCAG”, the figure is 9920 fluorescence intensity (a.u.); as for “TACTTTACCATTGTGGGTGCTCTAATTTCTACACTGTCCTCGGAGTCACCTAGTGCAG”, 8600 fluorescence intensity (a.u.). The figure for “CGCCTCCACGCCGCCCGTACACCGATCGCGATCTCTGTCGCGGAGTCACCTAGTGCAG” is 9060 fluorescence intensity (a.u.).
